From paper PMC5722525
These are yes or no findings as the source states them, for the method shown. In cells and extracts the contact can be indirect. Some entries that bind do so weakly or less than the wild type.

Protein sequences, listed by entry. Tags and fused reporters are not part of them.
UniProt Q9WV60: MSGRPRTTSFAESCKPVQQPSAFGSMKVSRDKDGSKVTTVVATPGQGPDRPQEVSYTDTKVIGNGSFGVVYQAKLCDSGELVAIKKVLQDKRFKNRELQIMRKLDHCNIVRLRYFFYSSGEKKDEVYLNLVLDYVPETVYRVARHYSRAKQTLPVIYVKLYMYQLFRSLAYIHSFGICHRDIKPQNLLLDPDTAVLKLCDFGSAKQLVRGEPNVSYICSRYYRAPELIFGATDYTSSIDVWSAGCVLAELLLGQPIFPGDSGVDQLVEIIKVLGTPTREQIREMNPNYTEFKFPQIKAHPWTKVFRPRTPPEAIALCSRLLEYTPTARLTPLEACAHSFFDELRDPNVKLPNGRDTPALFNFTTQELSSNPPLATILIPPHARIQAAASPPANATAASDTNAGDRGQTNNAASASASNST

Biological target: phosphorylated Gsk3β (mouse (endogenous in mouse oocytes)) (UniProt Q9WV60)
Assay: co-IP; p-Akt or p-Gsk3β antibody as bait, mouse oocyte lysate; blot with Pnma5 or p-Pnma5 antibodies (Figure 7B)

Row | binding | Binder
1 | binds | phosphorylated Pnma5 (phospho-Thr553) (protein, UniProt Q5DTT8 1-618, phosphothreonine at 553 (Thr553)) MAVALLDDWCKGMDLDPKKAVLIVGIPVQYTEAAINDALKEGLPPLCAYKVIGRMFRREDEAKAVLIELPEVVDYTMMPTHIPAEGGAWEVVVKPRSPDDEFMNKLIYFLRDEGRRIVDVAKALGFSTVPTGKIELKNLDQDKPKGLKSLCNNSTCYKKLKVFSGSPFPGPGEESFETWLEEVTELMQLWQVSEREKKQCLLESLRGSALSIMQALWTSNDSLTVEQCLKALKHIFGNKEDSKVLQFRFLQSSQKPAEKVSDYLLRLEPLLQKAVQQSPLSAHSADSIRLKHVLSQVSMTTGLRGKLSLLDQQGCPPTFLELMKLTRDEEEWESTVVVEEQEQVRRDSSACEAANEVVTQAEDSREVSTQTTGEEMTSVKRRRLLWRHSAGEEGQRKESGFWAESEPDEQKPYVRAQESGNERGAWAVSHPNPKEIEAQDSQEFLPVAGNRDTLTKSWGSPDKGTGDMSVAEGQQGQGKAPNFLLARNDPNKQEQIPHSSVTTKWQDRGECQRLKWGASMITRPQGNPDRSWDTSGSQDGEDGCSELRMPTGTEAAQGVEEPATGLSWAEDTSAWEQARLGRETVPRRGGRRIQPVFRIIYTALGEPHEGSTLESFRE
2 | binds weakly | Pnma5 (paraneoplastic antigen MA family member 5), total Pnma5 (protein, UniProt Q5DTT8 1-618) MAVALLDDWCKGMDLDPKKAVLIVGIPVQYTEAAINDALKEGLPPLCAYKVIGRMFRREDEAKAVLIELPEVVDYTMMPTHIPAEGGAWEVVVKPRSPDDEFMNKLIYFLRDEGRRIVDVAKALGFSTVPTGKIELKNLDQDKPKGLKSLCNNSTCYKKLKVFSGSPFPGPGEESFETWLEEVTELMQLWQVSEREKKQCLLESLRGSALSIMQALWTSNDSLTVEQCLKALKHIFGNKEDSKVLQFRFLQSSQKPAEKVSDYLLRLEPLLQKAVQQSPLSAHSADSIRLKHVLSQVSMTTGLRGKLSLLDQQGCPPTFLELMKLTRDEEEWESTVVVEEQEQVRRDSSACEAANEVVTQAEDSREVSTQTTGEEMTSVKRRRLLWRHSAGEEGQRKESGFWAESEPDEQKPYVRAQESGNERGAWAVSHPNPKEIEAQDSQEFLPVAGNRDTLTKSWGSPDKGTGDMSVAEGQQGQGKAPNFLLARNDPNKQEQIPHSSVTTKWQDRGECQRLKWGASMITRPQGNPDRSWDTSGSQDGEDGCSELRMPTGTEAAQGVEEPATGLSWAEDTSAWEQARLGRETVPRRGGRRIQPVFRIIYTALGEPHEGSTLESFRE
